In PubChem BioAssay AID2685 (National Center for Advancing Translational Sciences (NCATS), 2010) one finds cell number change and AC50 data, which are given here for 61 molecules.

The experiment in a line: qHTS Assay for Lipid Storage Modulators in Drosophila S3 Cells.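 On cell number change: cells counted by Cell Tracker Red CMTPX staining in the red channel.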 Particulars: BODIPY lipid droplet fluorescence, 18-24 h; for cell number change: measured here: cell count max response, cells fed with added oleic acid. The gist of the method: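 Drosophila S3 cells got compounds at several concentrations plus oleic acid (400 uM solution). Laser-scanning cytometry with 488 nm excitation read lipid droplets at 500-530 nm and cells at 575-640 nm. Percent activity was relative to 20 uM Triacsin C.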

Setting [1] is: measured here: cell number channel AC50, cells fed with added oleic acid.
[2] abbreviates: measured here: lipid fluorescence (Fed channel) AC50, cells fed with added oleic acid.

This is one part of the list. Shown are side measurements of this screen, not its main read-out; they come without a call. The list favours compounds with an active or inconclusive main result. Words in brackets tell the shape of the fitted curve; partial curves, single points and poor fits give uncertain potencies.

With `COc1ccc(/C=N/Nc2ccc([N+](=O)[O-])cc2)cc1Cn1cc([N+](=O)[O-])cn1`, the cell number change turned out to be 35.3%. Moreover, under setting [1], the AC50 is 0.184 µM [rising, full curve, poor fit]. For the same molecule, the AC50 under setting [2] was 0.461 µM [rising, full curve].

Regarding `C/C(=N\Nc1ncc(Cl)cc1Cl)c1ccc(N2CCOCC2)cc1`, the AC50 under setting [1] was 0.92 µM [rising, full curve, poor fit] and the AC50 under setting [2] was 11.6 µM [rising, partial curve, poor fit].

As for `Cc1nn(C)c(NC(=O)c2ccc([N+](=O)[O-])cc2)c1Cl`, the cell number change was -26.1%.

`CSc1ccccc1C(=O)N1CCN(c2ccc(F)cc2)CC1`: the cell number change came to 10.2%. Under setting [2], the AC50 was 0.0058 µM [rising, full curve, poor fit].

In the case of `CCN(CC(=O)Nc1ccc(NC(C)=O)cc1)C(=O)CCCc1nc2ccccc2s1`, the cell number change was determined as 1.19%. For the same molecule, the AC50 under setting [1] was 0.00651 µM [rising, full curve, poor fit]. Also, the AC50 under setting [2] is 2.91 µM [rising, partial curve, poor fit].

For the molecule `Cc1ccccc1C(=O)NC1CCN(CC(=O)Nc2c(C)cccc2C)CC1`, the cell number change was -17.3%. For the same molecule, the AC50 under setting [2] is 10.3 µM [falling, single point].

As for `CCC(=O)Nc1ccc(NC(=O)CSc2nc3c(c(=O)n(C)c(=O)n3C)n2CC)cc1`, the cell number change turned out to be 6.94%.

Regarding `COc1ccc(C2=NOC(C(=O)NCc3cccs3)C2)cc1` (centres undefined), the cell number change was 62.6%. In addition, under setting [1], the AC50 was 29.1 µM [rising, single point]. Further, the AC50 under setting [2] is 5.17 µM [rising, partial curve].

For `CCC(=O)c1cn(CC(=O)OC)c2ccccc12`, the cell number change came to 26.7%. The AC50 under setting [2] was 6.51 µM [falling, single point].

On to `O=C(Nc1ccccc1NC(=O)c1ccco1)c1ccccc1`, for which the half-maximal activity concentration (AC50) under setting [2] was 1.84 µM [falling, full curve].

`OCC(CO)(CO)NCC(O)CN1c2ccccc2Sc2ccccc21` (centres undefined): the cell number change is 23.6%. For the same molecule, the AC50 under setting [1] was 6.51 µM [rising, single point].

In the case of `CCOC(=O)c1ccc(S(=O)(=O)NCCN2CCOCC2)cc1`, the cell number change was 28.7%. Under setting [2], the AC50 was 6.51 µM [rising, full curve].

For `CC(Sc1nc2ccccc2s1)C(=O)Nc1ccc2c(c1)OCO2` (centres undefined), the cell number change is 34.1%. Moreover, the concentration at half-maximal activity (AC50) under setting [1] was 9.2 µM [rising, partial curve]. Moreover, the AC50 under setting [2] is 20.6 µM [rising, partial curve].

Regarding `CC(C)C(C(=O)NCC1CCCO1)N(CC1CCCO1)C(=O)CNS(=O)(=O)c1ccccc1` (centres undefined), the cell number change was determined as 33.5%. Also, under setting [1], the AC50 is 10.3 µM [rising, single point].

Take `O=C(Nc1cc2c3c(c1)CC(=O)N3CCC2)c1ccc(Cl)cc1`: the AC50 under setting [1] is 6.51 µM [rising, single point].

Consider `Cc1nnsc1Sc1cccc(C(F)(F)F)c1`, for which the cell number change worked out at 14.8%. Moreover, the AC50 under setting [2] was 0.58 µM [falling, single point].

Consider `O=C(c1cccc(S(=O)(=O)N2CCOCC2)c1)N1CCN(S(=O)(=O)c2cccs2)CC1`, for which the AC50 under setting [1] is 0.116 µM [rising, full curve, poor fit].

Regarding `COc1ccc(NC(=S)N(CCN(C)C)C(C)c2ccco2)cc1` (centres undefined), the cell number change came out at 7.89%. Further, under setting [2], the AC50 was 16.4 µM [rising, partial curve, poor fit].

As for `Cc1c(C(=O)Nc2ccc(Oc3ccccc3)cc2)sc2nc3n(c(=O)c12)CCC3`, the cell number change was -23.5%. Also, the AC50 under setting [2] was 0.184 µM [falling, full curve, poor fit].

Consider `CC1CCc2c(sc3nc(CSc4nnnn4C)[nH]c(=O)c23)C1` (centres undefined), for which the cell number change was -0.132%. Under setting [1], the AC50 was 0.517 µM [falling, partial curve, poor fit].

For the molecule `CCCCc1nc2cc(C(=O)NC(C)c3cnn(C)c3)ccc2o1` (centres undefined), the cell number change stood at 36%. Moreover, the AC50 under setting [1] was 11.6 µM [rising, partial curve].

`COc1ccc(C(=O)OCC(=O)NC(=O)NC2CCCC2)c(O)c1`: the cell number change turned out to be 24.8%. Moreover, the AC50 under setting [2] is 2.31 µM [falling, single point].

Consider `Cc1ccc(C)c(NCCC#N)c1`, for which the AC50 under setting [2] is 1.16 µM [falling, full curve, poor fit].

For the molecule `CCN(CC)CCCC(C)NC(=O)c1cccc(S(=O)(=O)N2CCc3ccccc32)c1` (centres undefined), the cell number change worked out at 32.7%.

Regarding `CCOC(=O)N1CCC2(CC1)C(C#N)=C(N)Oc1c2c(C)nn1-c1cccc(Cl)c1`, the cell number change was determined as 0.202%.

Regarding `Cc1cc2ncn(-c3nnnn3-c3ccccc3)c2cc1C`, the cell number change stood at 39%. Besides, under setting [1], the AC50 was 2.06 µM [rising, partial curve]. Besides, the AC50 under setting [2] is 6.51 µM [rising, partial curve].

For `Cc1sc2ncnc(SCC(=O)N3CCCC3)c2c1C`, the cell number change came to 135%. In addition, the AC50 under setting [1] was 29.1 µM [rising, single point]. Further, under setting [2], the AC50 was 29.1 µM [rising, partial curve].

Turning to `CCOC(=O)c1ccc(NC(=O)CNS(=O)(=O)c2ccccc2)cc1`, the cell number change was -33.5%. In addition, under setting [1], the AC50 is 7.31 µM [falling, partial curve, poor fit].

With `COc1ccc(/C=N/OCc2ccccc2C#N)c(OC)c1`, the AC50 by setting is: under setting [1], 0.58 µM [rising, partial curve, poor fit]; under setting [2], 1.3 µM [rising, full curve].

`COc1cc2c(cc1NC(=O)c1ccncc1)oc1ccccc12`: the cell number change was -10.3%. The half-maximal activity concentration (AC50) under setting [2] is 6.51 µM [rising, single point].

As for `CCC(=O)Nc1ccc(NC(=O)CSc2nnc(-c3ccco3)n2CC)cc1`, the cell number change is 6.25%. Moreover, the AC50 under setting [2] was 0.13 µM [falling, full curve].

`CCC(CC)NC(=O)c1cc(OC)c(OC)c(OC)c1`: the cell number change amounted to 7.24%.

Consider `COc1ccc(-c2nc(CS(=O)(=O)CC(=O)NCc3ccc(F)cc3)c(C)o2)cc1`, for which the cell number change is -9.79%. Also, under setting [2], the AC50 was 0.13 µM [rising, full curve, poor fit].

On to `CCOc1ccc(NC(=O)c2cc3c(=O)n(C)c4ccccc4c3n2C)cc1`, for which the cell number change was determined as 30.3%. Further, the AC50 under setting [1] is 29.1 µM [rising, single point]. Further, the AC50 under setting [2] is 29.1 µM [rising, single point].

`COC(=O)[C@@H]1CC[C@H](C)[C@@H](c2ccc(C)cc2)N1C(=O)c1ccc(/C=N/O[C@@H](C)CN2CCCCc3nc(C)c(C)cc32)cc1`: the cell number change is -19.4%. In addition, the AC50 under setting [2] was 14.6 µM [falling, single point].

As to `Cc1ccc(S(=O)(=O)N2CCN(C(=O)CSc3nnnn3C)CC2)c(C)c1`, the cell number change is 2.8%. For the same molecule, the AC50 under setting [2] was 6.51 µM [falling, single point].

In the case of `O=C(CN1CCN(c2ccc(F)cc2)CC1)Nc1ccc(F)c(F)c1`, the AC50 under setting [1] is 1.84 µM [falling, partial curve].

As for `S=C(Nc1ccc(Cl)cc1Cl)NC1CCN(Cc2ccccc2)CC1`, the cell number change is -6.68%. Also, the AC50 under setting [1] is 0.00517 µM [falling, full curve, poor fit].

For `CNS(=O)(=O)c1ccc(N=Cc2c(C)[nH]n(-c3ccc(C)cc3C)c2=O)cc1`, the cell number change was -37.1%. Under setting [2], the AC50 was 25.9 µM [falling, single point].

As for `COC(=O)c1cc(C(=O)N2CCN(c3ncccn3)CC2)cc([N+](=O)[O-])c1`, the cell number change was determined as 16.2%. Also, under setting [2], the AC50 is 6.51 µM [rising, single point].

With `O=C1c2ccccc2C(=O)N1CCc1csc(-c2ccc(F)cc2)n1`, under setting [1], the AC50 is 0.092 µM [rising, full curve, poor fit].

For `COc1ccc(-c2c(C(F)(F)F)[nH]n3c(=O)cc(-c4ccccc4)nc23)cc1`, the cell number change is -26.3%. Further, under setting [2], the AC50 is 16.4 µM [rising, single point].

Turning to `O=C(c1ccco1)N1CCN(Cc2cccc3ccccc23)CC1`, the cell number change was determined as 8.57%.

As to `C/C(=N\N1CCCCC1)c1ccccc1O`, the cell number change is -28.8%.

Take `C=CCN(c1ccccc1)S(=O)(=O)c1cccc2cccnc12`: the cell number change turned out to be 1.05%. For the same molecule, the AC50 under setting [2] was 18.4 µM [rising, single point].

Consider `CCOc1cc(NC(=O)c2cccs2)c(OCC)cc1NC(=O)CCC(=O)NCc1ccccn1`, for which the cell number change is -1.49%.

On to `O=C(COc1ccccc1)Nc1cccc(-c2nc3ccccc3[nH]2)c1`, for which the cell number change is 4.98%. The AC50 under setting [2] was 1.64 µM [rising, partial curve, poor fit].

`CCc1cccc(NS(=O)(=O)c2cccc3cccnc23)c1`: the cell number change is -29.1%. Besides, under setting [2], the AC50 is 3.66 µM [falling, full curve].

For the molecule `Cc1nnc(SCC(=O)NC(=O)NC(C)(C)C)n1N`, the cell number change worked out at 35.4%. Besides, the AC50 under setting [1] is 0.184 µM [rising, full curve]. In addition, the AC50 under setting [2] is 0.326 µM [rising, full curve, poor fit].

`O=C(NCc1ccc(Cl)cc1)C1CCC(CNS(=O)(=O)c2ccccc2)CC1` (centres undefined): the cell number change was found to be 228%.

On to `Cc1cc(/C=N/NC(=O)c2cccs2)c(C)n1-c1ccccc1`, for which the cell number change came out at 5.75%. In addition, the AC50 under setting [2] is 6.51 µM [rising, single point].

As for `CCOC(=O)CC1(NC(=O)C2CCC(=O)N(CCc3ccc(OC)cc3)C2)CCCCC1` (centres undefined), the cell number change is -22.9%. For the same molecule, under setting [2], the AC50 was 29.1 µM [falling, single point].

Take `CC(C)(C)N1CC23CCC(C[C@@H]2C1=O)O3` (some centres undefined): the cell number change was -14.4%.

As for `CC(=O)Nc1ccccc1N(C)S(=O)(=O)c1ccc(C)cc1`, the cell number change is -20.4%. Further, the AC50 under setting [2] is 0.103 µM [falling, full curve, poor fit].

As to `Cc1cc(NS(=O)(=O)c2ccc(NC(=O)c3ccc(Cl)cc3Cl)cc2)no1`, the cell number change was -23.8%.

As for `Cc1cc(NC(=O)c2cccc(S(=O)(=O)N3CCCCCC3)c2)n(-c2ccccn2)n1`, the cell number change was -0.735%.

Consider `CCc1ccc(N2C(=O)CC(c3ccc(F)cc3)C3=C2COC3=O)cc1` (centres undefined), for which the cell number change turned out to be 46.6%. For the same molecule, the AC50 under setting [1] was 29.1 µM [rising, single point].

Consider `CC(C)CCOc1ccc(Cl)cc1CN1CCOCC1`, for which the cell number change is -3.18%. For the same molecule, under setting [1], the AC50 is 0.13 µM [falling, full curve, poor fit]. The AC50 under setting [2] was 20.6 µM [rising, partial curve].

For the molecule `CN(c1ccccc1)S(=O)(=O)c1ccccc1Br`, the cell number change is 0.614%. Moreover, the AC50 under setting [1] is 2.06 µM [falling, single point]. Moreover, the AC50 under setting [2] was 1.03 µM [rising, partial curve].

With `Cc1oc(-c2cccs2)nc1CS(=O)CC(=O)NCCCN1CC(C)CC(C)C1` (centres undefined), the cell number change was -14.3%. Further, under setting [2], the AC50 is 6.51 µM [falling, single point].

As for `CNc1nc(C)cc(C)c1S(=O)(=O)c1ccc(C)cc1`, the cell number change worked out at 39.4%. In addition, under setting [1], the half-maximal activity concentration (AC50) was 4.61 µM [rising, full curve, poor fit].
